# Source: PubChem BioAssay AID540256 (National Center for Advancing Translational Sciences (NCATS), 2011)
# About 3,700 (1.2%) of roughly 300,000 compounds were called active. Inconclusive means that the source gave no clear call. Such entries were picked first, then a sample of the others. Calls come from the whole dose curve; tested in HEK293 cells. Where the call is inconclusive, the potency comes from a doubtful curve fit.
# Experiment: qHTS for Inhibitors of binding or entry into cells for Lassa Virus; note: nearly all actives have a fitted effect of over 50% in size
# Settings: Lassa virus pseudotype entry inhibition, cell reporter; series mostly up to 37.9 µM
# Potency is the fitted concentration of half-maximal effect.
row,SMILES,Potency
1,COc1ccc([C@H]2C[C@H](O)[C@@H](n3cc(-c4ccc(F)cc4)nn3)CN2Cc2cccs2)cc1,"inconclusive: 3.53 µM [inhibitor, full curve]"
2,COc1cc(OC)cc(C(=O)NC(=S)Nc2cc3oc4ccccc4c3cc2OC)c1,"inconclusive: 7.3 µM [inhibitor, partial curve, poor fit]"
3,CSc1ccc(C(=O)N2CCC(n3nccc3NC(=O)C3CC3)CC2)cc1,inactive
4,S=c1[nH]ncn2c1cc1oc3ccccc3c12,"inconclusive: 1.26 µM [activator, single point]"
5,O=C(COc1ccccc1)Nc1sc2c(c1C(=O)NCc1cccnc1)CCCC2,"inconclusive: 29.1 µM [inhibitor, single point]"
6,COC(=O)C(CCSC)NC(=O)c1cc2c(n(-c3ccccc3)c1=O)CCCC2=O (stereo unspecified),inactive
7,CNC(=S)N1N=C2c3ccccc3CCC2C1c1ccccc1Cl (stereo unspecified),"inconclusive: 35.5 µM [inhibitor, single point]"
8,CCOC(=O)C1=C(C)Nc2nc(C)nn2C1c1ccc(C)cc1 (stereo unspecified),"inconclusive: 4.61 µM [inhibitor, full curve]"
9,NNc1nnc2c3cc(F)ccc3n(CCc3ccccc3)c2n1,"inconclusive: 20 µM [inhibitor, single point]"
10,COc1ccc(/C=N/NC(=O)c2nn(C)cc2Br)cc1CSCc1ccco1,inactive
11,CCC(Sc1nncn2c1cc1sccc12)C(=O)Nc1cccc(OC)c1 (stereo unspecified),"inconclusive: 15.8 µM [activator, partial curve, poor fit]"
12,Cc1cccc(NC(=O)C2CCCN(S(=O)(=O)c3c(C)noc3/C=C/N(C)C)C2)c1C (stereo unspecified),inactive
13,CCCn1c(N)c(C(=O)CSc2nnc(Cc3ccccc3)o2)c(=O)n(C)c1=O,"inconclusive: 9.2 µM [inhibitor, partial curve, poor fit]"
14,CCc1sc(NC(=O)C(C)C)nc1-c1ccccc1,"inconclusive: 5.62 µM [activator, full curve, poor fit]"
15,Cn1c(=O)c2c(nc(SCCN3CCOCC3)n2Cc2ccccc2)n(C)c1=O,inactive
16,Cc1cc(-n2nc3ccccc3n2)c(O)c([N+](=O)[O-])c1,"inconclusive: 0.891 µM [inhibitor, single point]"
17,CC(=O)SC1CC2=CC(=O)CC[C@]2(C)C2CC[C@@]3(C)C(CC[C@@]34CCC(=O)O4)C12 (stereo partly specified),"inconclusive: 0.291 µM [activator, full curve]"
18,NC(=O)c1ccccc1NC(=S)NC(=O)CCc1ccccc1,"inconclusive: 0.708 µM [inhibitor, full curve, poor fit]"
19,CN(C)S(=O)(=O)N1CCC(Oc2cccc(C(=O)NCCC3=CCCCC3)c2)CC1,"inconclusive: 35.5 µM [inhibitor, single point]"
20,COc1cccc(/C=C/C(=O)Nc2ccc(N3CCOCC3)cc2)c1OC,inactive
21,Cc1ccccc1Cn1c(=O)n(CCCC(=O)NCc2ccco2)c(=O)c2ccccc21,inactive
22,CCc1ccccc1NC(=O)CN(C)C(=O)Cn1cc(C(F)(F)F)cc(Cl)c1=O,inactive

# Part of the list above in order of formula weight, low to high.
row,SMILES,Potency
11,CCC(Sc1nncn2c1cc1sccc12)C(=O)Nc1cccc(OC)c1 (stereo unspecified),"inconclusive: 15.8 µM [activator, partial curve, poor fit]"
6,COC(=O)C(CCSC)NC(=O)c1cc2c(n(-c3ccccc3)c1=O)CCCC2=O (stereo unspecified),inactive
2,COc1cc(OC)cc(C(=O)NC(=S)Nc2cc3oc4ccccc4c3cc2OC)c1,"inconclusive: 7.3 µM [inhibitor, partial curve, poor fit]"

# Carrying on.

row,SMILES,Potency
1,COc1ccc(N=CC2=C(O)CC(c3ccccc3)CC2=O)c(OC)c1 (stereo unspecified),"inconclusive: 16.4 µM [inhibitor, partial curve, poor fit]"
2,COCCn1cnc2c(c1=O)c1nc3ccccc3nc1n2/N=C/c1ccc(OC)c(OC)c1,"inconclusive: 1 µM [inhibitor, full curve, poor fit]"
3,Cc1cc(C)c2cc3c(N)c(C(=O)N4CCOCC4)sc3nc2c1,inactive
4,CCOc1ccc(C2c3c(-c4ccccc4O)n[nH]c3C(=O)N2Cc2ccncc2)cc1 (stereo unspecified),"inconclusive: 1 µM [inhibitor, full curve, poor fit]"
5,Cc1ncoc1C(=O)Nc1ncc([N+](=O)[O-])s1,"inconclusive: 17.8 µM [inhibitor, partial curve, poor fit]"
6,CCc1ccc(C(=O)c2cn(CC(=O)Nc3ccc(F)cc3)c3cc4c(cc3c2=O)OCO4)cc1,"inconclusive: 11.2 µM [inhibitor, partial curve, poor fit]"
7,Cc1ccc(N(CC(=O)NC(C)c2ccccc2)S(=O)(=O)c2c(C)noc2C)cc1 (stereo unspecified),"inconclusive: 2 µM [inhibitor, partial curve, poor fit]"
8,COc1ccccc1-n1nnnc1SCc1cc2c(cc1Br)OCO2,"inconclusive: 12.6 µM [inhibitor, partial curve]"
9,C=CCN1C[C@@H](C)N([C@H](c2ccc(C(=O)N(CC)CC)cc2)c2cccc(OC)c2)C[C@@H]1C,"inconclusive: 13 µM [inhibitor, partial curve, poor fit]"
10,Cc1cccc(C(C(=O)NC2CCCCC2)N(Cc2cccnc2)C(=O)c2csnn2)c1 (stereo unspecified),"inconclusive: 3.98 µM [inhibitor, single point]"
11,OCC1(Cc2cccc(F)c2)CCN(Cc2ccc3cccc(F)c3n2)CC1,"inconclusive: 6.31 µM [inhibitor, single point]"
12,CCOc1ccccc1C1c2[nH]c3ccccc3c2C[C@H]2C(=O)N(C3CCN(Cc4ccccc4)CC3)CC(=O)N12 (stereo partly specified),"inconclusive: 7.94 µM [inhibitor, partial curve, poor fit]"
13,CCn1cc(CN2CCC(C(=O)Nc3ccc(Oc4ccccc4F)cc3)CC2)c(C)n1,inactive
14,O=C(NCC1CC1)c1cc([N+](=O)[O-])cc([N+](=O)[O-])c1,"inconclusive: 35.5 µM [inhibitor, single point]"
15,COc1ccc([N+](=O)[O-])cc1NCc1ccccc1,inactive
16,O=C(Nc1ccc(Cl)cc1)N(C1=NCCC1)c1ccc(OC(F)F)cc1,"inconclusive: 6.51 µM [inhibitor, partial curve]"
17,COc1ccc(-c2nc(SCC(=O)NCCCc3ccccc3)n[nH]2)cc1,"inconclusive: 7.08 µM [inhibitor, partial curve, poor fit]"
18,Cc1cccc(C(=O)Nc2ccc(N3CCN(c4ccc(C(F)(F)F)cn4)CC3)nc2)c1,inactive
19,O=C(CCNS(=O)(=O)c1ccc(Cl)cc1)N1CCN(Cc2ccccc2)CC1,"inconclusive: 29.1 µM [inhibitor, single point]"
20,C/C(=N/NC(=O)c1ccoc1C)c1cccc(NC(=O)C2CC2)c1,inactive
21,Cc1ccc(NNC(=S)Nc2ccc(C(C)C)cc2)c(C)c1,"inconclusive: 35.5 µM [inhibitor, single point]"
22,Nc1nc(=S)c2ncn(C3OC(CO)C(O)C3O)c2[nH]1 (stereo unspecified),inactive

row,SMILES,Potency
1,CN(/N=C/c1cccnc1)c1cnc2ccccc2n1,"inconclusive: 35.5 µM [inhibitor, single point]"
2,CC(C)Cc1nn2c(=O)cc(COC(=O)c3cccc(NC(=O)CCc4ccccc4)c3)nc2s1,inactive
3,COCCn1c(C)cc(C(=O)COC(=O)C23CC4CC(CC(O)(C4)C2)C3)c1C,"inconclusive: 5.17 µM [inhibitor, partial curve, poor fit]"
4,S=C(NCCCN1CCOCC1)Nc1cccc(Cl)c1,active: 12.6 µM
5,CCOC(=O)Cn1nnc(-c2ccc([N+](=O)[O-])cc2)n1,inactive
6,Cc1ccc2ccc(C(Nc3ccccn3)c3ccccc3)c(O)c2n1 (stereo unspecified),"inconclusive: 35.5 µM [inhibitor, single point]"
7,Cc1cc(N2CCOCC2)nc2ccc(NC(=S)N3CCCCC3C)cc12 (stereo unspecified),"inconclusive: 3.55 µM [inhibitor, single point]"
8,N#C/C(=C\c1ccc(N2CCOCC2)o1)c1ccccc1,"inconclusive: 2.91 µM [activator, full curve]"
9,CCOC(=O)CN1C(=O)C(Sc2n[nH]c(-c3ccc(C)cc3)n2)CCc2ccccc21 (stereo unspecified),"inconclusive: 32.6 µM [inhibitor, single point]"
10,CC(=O)c1c(C)[nH]c(C(=O)Nc2nc(-c3ccc(Cl)cc3)cs2)c1C,"inconclusive: 11.2 µM [inhibitor, partial curve, poor fit]"
11,CCCOc1ccccc1C(=O)N1CCC(c2nc3ccccc3s2)CC1,inactive
12,C=CCc1c(C)nc2nc(SCC(=O)Nc3ccccc3CC)nn2c1C,inactive
13,COc1ccc(NC(=O)c2ccc(C)cc2)c(OC)c1,"inconclusive: 14.6 µM [activator, partial curve, poor fit]"
14,Cc1ccc(S(=O)(=O)c2nc(-c3ccccc3Cl)oc2N2CCN(C)CC2)cc1,"inconclusive: 14.1 µM [inhibitor, partial curve, poor fit]"
15,CC(C)CC(c1nnnn1Cc1ccc(F)cc1)N1CCC(C(N)=O)CC1 (stereo unspecified),"inconclusive: 7.08 µM [inhibitor, partial curve, poor fit]"
16,Clc1cccc(CSc2nnc(-c3sccc3-n3cccc3)o2)c1,"inconclusive: 35.5 µM [inhibitor, partial curve, poor fit]"
17,CCN(CC)CCn1c(SCC(=O)NCc2ccco2)nc2c(sc3ccccc32)c1=O,"inconclusive: 0.146 µM [inhibitor, partial curve, poor fit]"
18,COc1cccc(-c2nc3c(c(SCc4ccccc4)n2)Cc2c(CO)cnc(C)c2O3)c1,inactive
19,COc1ccc(NCC(O)Cn2c(C)c(C)c3ccccc32)cc1 (stereo unspecified),"inconclusive: 35.5 µM [inhibitor, single point]"
20,COc1cc(C(=O)Nc2cc(C)ccc2OCc2cc(=O)n3cc(C)sc3n2)cc(OC)c1OC,inactive
21,C/C(=N\NC(=S)Nc1c(C)cccc1C)c1ccc(OC(F)F)cc1,"inconclusive: 23.1 µM [inhibitor, partial curve, poor fit]"
22,O=S(=O)(Nc1ccc(Cc2ccncc2)cc1)c1ccc(Br)cc1,"inconclusive: 32.6 µM [inhibitor, single point]"
